Record: PubChem BioAssay AID686943 (Drosophila RNAi Screening Center, 2013)

Purpose: 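Search across the genome for regulators of signalling from receptor tyrosine kinase to ERK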 (primary screen)
Cells: Drosophila S2R+ haemocyte-like cells expressing YFP-tagged ERK (Rolled)
Knock-down reagent: long dsRNA against Drosophila genes
Challenge: insulin stimulation versus unstimulated cells; dose and duration not given
Detection: 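Per-plate z-scores of phospho-ERK immunostaining normalised to YFP-tagged ERK, measured with and without insulin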
Reading the numbers: replicate 1, z-score of dpERK with insulin and replicate 2, z-score of dpERK with insulin: higher = more active ERK per ERK-YFP after insulin
The screen tested about 23,000 reagents; below is a random part of those with a known target gene and a result. 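Extra replicates exist only for a retested subset of genes; insulin dose and duration not given; both raised and lowered dpERK matter.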 Names joined by + are all predicted targets of the reagent. Not all columns of the deposit are shown. Not stated in the record: the amount of reagent, the time to read-out.

no.	Gene	DRSC id	replicate 1, z-score of dpERK with insulin	replicate 2, z-score of dpERK with insulin
1	CG5697 (GeneID 42483)	DRSC15858	6.27	-1.1
2	CG33189 (GeneID 326328)	DRSC21427	1.53	-0.59
3	CG18063 (GeneID 34943)	DRSC01968	0.17	0.46
4	Nup160 (GeneID 34549)	DRSC02774	-0.48	0.23
5	Coa7 (GeneID 3355158)	DRSC20967	-0.48	0.05
6	gry (GeneID 38391)	DRSC08028	1.19	0.56
7	gry (GeneID 38391)	DRSC08518	0.86	1.03
8	MrgBP (GeneID 35880)	DRSC06417	-1.68	-1.88
9	CG18179 (GeneID 39124)	DRSC10303	0.81	0.5
10	fy (GeneID 34166)	DRSC03533	-0.48	0.22
11	CG6290 (GeneID 32827)	DRSC19979	0.15	0.23
12	CG4306 (GeneID 40017)	DRSC10409	0.17	-0.62
13	Abi (GeneID 41718)	DRSC14099	-0.1	-0.63
14	Sara (GeneID 44263)	DRSC04653	-0.22	0.33
15	Tis11 (GeneID 32222)	DRSC20293	-2.61	-4.16
16	Trpgamma (GeneID 34991)	DRSC03626	0.8	-0.35
17	CG15601 (GeneID 32509)	DRSC19670	0.12	0.55
18	CG15483 (GeneID 34687)	DRSC02493	0.09	0.39
19	CG13423 (GeneID 37315)	DRSC06386	0.08	0.01
20	kug (GeneID 40191)	DRSC10911	0.25	-0.03
21	Sarm (GeneID 38895)	DRSC08906	-0.75	-0.16
22	Sarm (GeneID 38895)	DRSC08907	-0.34	-0.18
23	Sarm (GeneID 38895)	DRSC10038	0.41	0.07
24	Sarm (GeneID 38895)	DRSC10039	-0.55	-0.24
25	Sarm (GeneID 38895)	DRSC10927	1.41	1.15
26	Sarm (GeneID 38895)	DRSC10929	-0.43	-0.48
27	CG17803 (GeneID 42141)	DRSC15275	1.51	0.75
28	CG17803 (GeneID 42141)	DRSC22811	0.46	-0.2
29	CG33468 (GeneID 2768833)	DRSC22940	-0.1	0.57
30	CG3345 (GeneID 33192)	DRSC00596	0.11	0.2
31	CG34277 + CG31542	DRSC21544	-0.45	-1.82
32	CG10737 (GeneID 37202)	DRSC05999	0.09	-0.01
33	SMC5 (GeneID 326215)	DRSC11849	0.65	0.52
34	Hil (GeneID 37328)	DRSC05989	0.08	-0.52
35	Hil (GeneID 37328)	DRSC06395	-0.57	-0.21
36	Cpr (GeneID 33883)	DRSC03293	-0.51	0.32
37	CG15651 (GeneID 37375)	DRSC04242	0.61	0.54
38	Pgi (GeneID 35886)	DRSC07507	0.41	0.89
39	CG14132 (GeneID 50290)	DRSC10136	-0.01	-0.02

Limited to “replicate 1, z-score of dpERK with insulin”, for 6 of the entries above:
Nup160 (GeneID 34549) [DRSC02774]: -0.48
Coa7 (GeneID 3355158) [DRSC20967]: -0.48
gry (GeneID 38391) [DRSC08028]: 1.19
gry (GeneID 38391) [DRSC08518]: 0.86
MrgBP (GeneID 35880) [DRSC06417]: -1.68
CG18179 (GeneID 39124) [DRSC10303]: 0.81
